These are yes or no findings as the source states them, for the method shown. Binding calls can cover weak binding; strength is not graded here.
Columns and labels:
[1] = biological target: voltage gated potassium channel modulatory subunit (human); test: yeast two-hybrid (PathCalling)
[2] = biological target: voltage gated potassium channel modulatory subunit (human); test: yeast two-hybrid (PathCalling, Gal4-BD / Gal4-AD fusions)

B1: Calpain 3 (NOV23b, CG57509-02) (enzyme)
chain: MPTVISASVAPRTAAEPRSPGPVPHPAQSKATEAGGGNPSGIYSAIISRNFPIIGVKEKTFEQLHKKCLEKKVLYVDPEFPPDETSLFYSQKFPIQFVWKRPPEICENPRFIIDGANRTDICQGELGDCWFLAAIACLTLNQHLLFRVIPHDQSFIENYAGIFHFQFWRYGEWVDVVIDDCLPTYNNQLVFTKSNHRNEFWSALLEKAYAKLHGSYEALKGGNTTEAMEDFTGGVAEFFEIRDAPSDMYKIMKKAIERGSLMGCSIDDGTNMTYGTSPSGLNMGELIARMVRNMDNSLLQDSDLDPRGSDERPTRTIIPVQYETRMACGLVRGHAYSVTGLDEVPFKGEKVKLVRLRNPWGQVEWNGSWSDRWKDWSFVDKDEKARLQHQVTEDGEFWMSYEDFIYHFTKLEICNLTADALQSDKLQTWTVSVNEGRWVRGCSAGGCRNFPDTFWTNPQYRLKLLEEDDDPDDSEVICSFLVALMQKNRRKDRKLGASLFTIGFAIYEVPKEMHGNKQHLQKDFFLYNASKARSKTYINMREVSQRFRLPPSEYVIVPSTYEPHQEGEFILRVFSEKRNLSEEVENTISVDRPVKKKKTKPIIFVSDRANSNKELGVDQESEEGKGKTSPDKQKQSPQPQPGSSDQESEEQQQFRNIFKQIAGDDMEICADELKKVLNTVVNKHKDLKTHGFTLESCRSMIALMDTDGSGKLNLQEFHHLWNKIKAWQKIFKHYDTDQSGTINSYEMRNAVNDAGFHLNNQLYDIITMRYADKHMNIDFDSFICCFVRLEGMFRAFHAFDKDGDGIIKLNVLEWLQLTMYA
binding [1]: binds
binding [2]: binds
